Results taken from article PMC11026519.
These are yes or no findings as the source states them, for the method shown. Some results given as binding are weak or reduced against the parent protein; the word gives no strength.

By UniProt entry, the sequences of proteins in these tests, tags left out.
UniProt P52952: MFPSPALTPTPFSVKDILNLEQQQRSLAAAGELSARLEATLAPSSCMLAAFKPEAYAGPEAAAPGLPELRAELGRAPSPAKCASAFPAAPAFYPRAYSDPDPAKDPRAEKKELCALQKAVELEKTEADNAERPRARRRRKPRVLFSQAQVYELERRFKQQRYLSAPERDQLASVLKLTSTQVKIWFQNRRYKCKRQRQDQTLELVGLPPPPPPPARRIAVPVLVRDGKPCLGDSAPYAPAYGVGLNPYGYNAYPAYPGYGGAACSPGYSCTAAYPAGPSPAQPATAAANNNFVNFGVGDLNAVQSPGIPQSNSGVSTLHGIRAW
UniProt P43694: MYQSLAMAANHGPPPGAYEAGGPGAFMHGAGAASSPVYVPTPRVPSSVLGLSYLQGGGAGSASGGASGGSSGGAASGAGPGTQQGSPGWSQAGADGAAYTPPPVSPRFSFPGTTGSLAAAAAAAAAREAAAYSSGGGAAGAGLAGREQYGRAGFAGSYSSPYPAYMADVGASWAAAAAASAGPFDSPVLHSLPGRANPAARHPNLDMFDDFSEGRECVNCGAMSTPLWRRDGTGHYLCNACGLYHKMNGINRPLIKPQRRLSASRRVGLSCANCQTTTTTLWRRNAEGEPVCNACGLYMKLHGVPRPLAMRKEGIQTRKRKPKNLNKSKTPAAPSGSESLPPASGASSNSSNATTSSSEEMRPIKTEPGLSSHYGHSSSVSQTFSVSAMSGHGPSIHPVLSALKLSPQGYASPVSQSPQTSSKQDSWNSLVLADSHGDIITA

Target: NKX2-5 with N-terminal SH-tag (human) (UniProt P52952)
Experiment: AlphaScreen or HTRF; whole cell lysates of COS-1 cells expressing GATA4-V5 (1,000 cells per well) and NKX2-5-SH (2,500 cells per well) combined in Alpha Screen sample buffer (50 mM Tris-HCl pH 7.4, NaCl, 0.1% BSA) with DMSO or compound 1 dilution series, 60 min at 4 °C; then V5-acceptor beads and Strep-Tactin donor beads, 20 µg/mL each, 60 min at room temperature

binding: binds
Substance: GATA4 protein with C-terminal V5-tag (from UniProt P43694 1-442)
